The supplement of paper PMC11546906
Where a name gives a salt, the structure may show the parent alone. The list shows a part of the results. Repeats in this data set agree poorly, so a single value says little.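 A screen tested FDA-approved drugs combined with one-eighth-MIC colistin against a clinical mcr-1-positive, multidrug-resistant E. coli isolate, measuring OD600 at 24 h. Controls were untreated bacteria (growth) and broth alone (blank). An OD600 under 0.2 marked a combination as active.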

Each compound was assayed on Escherichia coli 42 (mcr-1-positive clinical isolate) (assay: OD600 after 24 h growth with compound plus colistin (absorbance units (OD600)); higher = more bacterial growth (less inhibition)). Settings: first compound 25 µM; colistin concentration 0.5 ug/mL; incubation time 24 h; 37 °C.

OD600, inactive:
C[n+]1ccccc1/C=N/O [Pralidoxime Chloride] + CCC(C)CCCC(=O)N[C@@H](CCN)C(=O)N[C@H](C(=O)N[C@@H](CCN)C(=O)N[C@H]1CCNC(=O)[C@H]([C@@H](C)O)NC(=O)[C@H](CCN)NC(=O)[C@H](CCN)NC(=O)[C@H](CC(C)C)NC(=O)[C@@H](CC(C)C)NC(=O)[C@H](CCN)NC1=O)[C@@H](C)O [colistin] 1.19, CN(C)C(=N)NC(=N)N [Metformin hydrochloride] + CCC(C)CCCC(=O)N[C@@H](CCN)C(=O)N[C@H](C(=O)N[C@@H](CCN)C(=O)N[C@H]1CCNC(=O)[C@H]([C@@H](C)O)NC(=O)[C@H](CCN)NC(=O)[C@H](CCN)NC(=O)[C@H](CC(C)C)NC(=O)[C@@H](CC(C)C)NC(=O)[C@H](CCN)NC1=O)[C@@H](C)O [colistin] 0.787, CC(=O)O[C@@]12CO[C@@H]1C[C@H](O)[C@@]1(C)C(=O)[C@H](O)C3=C(C)[C@@H](OC(=O)[C@H](O)[C@@H](NC(=O)OC(C)(C)C)c4ccccc4)C[C@@](O)([C@@H](OC(=O)c4ccccc4)[C@H]21)C3(C)C [Docetaxel trihydrate] + CCC(C)CCCC(=O)N[C@@H](CCN)C(=O)N[C@H](C(=O)N[C@@H](CCN)C(=O)N[C@H]1CCNC(=O)[C@H]([C@@H](C)O)NC(=O)[C@H](CCN)NC(=O)[C@H](CCN)NC(=O)[C@H](CC(C)C)NC(=O)[C@@H](CC(C)C)NC(=O)[C@H](CCN)NC1=O)[C@@H](C)O [colistin] 1.04
